Among the data in patent US20190338026A1 (University of Texas, published 2019) are binding values, retold here.

Results are given in words; binding and its absence hold for the method and conditions named. Some entries that bind do so weakly or less than the wild type. Tags and fused reporters may be left off the sequences shown.

Test [1] has as its target T1, human LAIR1 extracellular domain (ECD) protein with 6 HIS tag at the C-terminus (human) (UniProt Q6GTX8).
T1 sequence: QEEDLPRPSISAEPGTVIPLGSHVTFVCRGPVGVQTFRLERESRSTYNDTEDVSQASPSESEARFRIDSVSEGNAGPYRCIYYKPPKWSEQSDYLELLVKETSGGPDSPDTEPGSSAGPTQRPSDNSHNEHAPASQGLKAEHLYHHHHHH
The test is described as follows: ELISA.

Test [2] has as its target T1, human LAIR1 extracellular domain (ECD) protein with 6 HIS tag at the C-terminus (human). The experiment in a line: ELISA, LAIR1 ECD coated. (An ELISA detects its analyte on a solid surface through an enzyme-linked reagent.)

B1: LA-37 (antibody, V domains shown)
VH: EQSLEESGGDLVKPGASLTLTCKASGFSFSSSEFMCWVRQAPGKGLEWIACIYGGLSDDTYFASWAKGRFTISKTSSITVTLQMTSLTAADTATYFCARSCDVNYYGFDPWGPGTLVTISS
VL: ELVLTQTPAPVSAAVGDTVTIKCQASQNKGTNLAWYQQKPGQPPKLLIYLSSTLASGVPPRFKGSRSGTEYTLTISDLECADAATYFCQSTYYGSNGLTFGGGTEVEIK
notes: Rabbit monoclonal IgG; also called mAb LA-37
As for B1, the binding result in test [1] and in test [2] was “binds” each time.

B2: LA-192 (antibody, V domains shown)
VH: EQSLEESGGRLVTPGTPLTLTCTASGFSLSSYYMTWVRQAPGKGLEWIGYMHTGGGVVYASWATGRFTISRTSTTVDLKITSPTTEDTATYFCARSHAGYSTINRLDLWGVGTLVTISS
VL: ELDLTQTPSSVSAAVGGTVTISCQSSPSVYTNNLSWFQQKPGQPPKLLIYDASKLESGVPSRFRGSGSGTQFTLTISDVQCDDAATYYCAGAYLSDSDTTFGGGTELEIK
notes: Rabbit monoclonal IgG; Called an agonist antibody
Turning to B2, the binding entry in test [1] and in test [2] was “binds” in each case.

B3: LA-29 (antibody, V domains shown)
VH: SSSVEESGGGLVQPEGSLTLTCTASGFSFSSRYYMCWVRQAPGKGLEWIACIYNGDGSRYYASWAKGRFTISKTSSTTVTLQMTSLTAADTATYFCVRDRHTAFVDYGDDNLWGPGTLVTVSS
VL: ELDLTQTPASVSEPVGGTVTIKCQASQSIYSNLAWYQQKPGQPPKLLIYRASTLASGVPSRFKGSGAGTEFTLTISDLECADAATYYCQCTYDGISYVPSSFGGGTEVVVK
notes: Rabbit monoclonal IgG; also called mAb LA-29
Turning to B3, the binding result in test [1] and in test [2] was “binds” throughout.

B4: LA-6 (antibody, V domains shown)
VH: EQSVEESGGDLVKPEGSLTLTCTASGFSFSSGYYMCWVRQAPGKGLEWIGCIHSSSGNIYYASWAKGRFTISKTSSTTVDLQLTSLTAADTATYFCARDSEVYGWNPNDLWGPGTLVTVSS
VL: ELDMTQTPASVSEPVGGTVTIKCQASQSISSYLAWYQQKPGQRPKLLIYGASNLASGVSSRFKGSRSGTQFTLTITDLECDDAATYYCQCSYYGNSYVGGAFGGGTEVVVK
notes: Rabbit monoclonal IgG; also called mAb LA-6
Turning to B4, the binding entry in test [1] and in test [2] was “binds” in each case.

B5: LA-145 (antibody, V domains shown)
VH: SSSVEESGGRLVTPGTPLTLTCTVSGFSLSSYVMGWVRQAPGKGLEWIGTISIRSNTYYASWAKGRFTISKTSTTVDLKITSPITEDTATYFCARGAGNVYYSDYYFSLWGPGTLVTISS
VL: ELVMTQPPASVSAAVGGTVTINCQASQNIYSNLAWYQQRPGQPPKLLIYKASTLASGVPSRFKGSGSGTDYTLTITDLECADAATYYCQTYYNMMDDGAAFGGGTEVEIK
notes: Rabbit monoclonal IgG
With B5, the binding result in test [1] and in test [2] was “binds” each time.

B6: LA-199 (antibody, V domains shown)
VH: EQSVEESGGRLVTPGTPLTLTCTASGFSLSSYAMIWVRQAPGEGLEWIGDIYAGGGATYYASWAKGRFTISKTSTTVDLKITSPTTEDTATYFCARAYGSGYDLWGPGTLVTVSS
VL: ELDLTQTPASVEVAVGGTVTIKCQASQSISSYLSWYQQKPGQPPKLLIYYASTMASGVPSRFSGSGSGTQFTLTISDLECADAATYYCQQGDSRSNVDNIFGGGTEVVVK
notes: Rabbit monoclonal IgG
For the molecule B6, the binding entry in test [1] and in test [2] was “binds” each time.

B7: LA-111 (antibody, V domains shown)
VH: EQSVEESGGGLVAPGGSLTLTCTVSGFSLSNYHMGWVRQAPGKGLEWIGYIYTHGTTFYASWAKGRFTISKTSTTVDLKMTRLTTGDTATYFCARGGYADYNILYNLWGPGTLVTISS
VL: ELVLTQTPASVEAAVGGTVTINCQASQSISSYLAWYQQKPGQPPKLLIYDASDLASGVPSRFKGSRSGTEFTFTISDLECADAATYYCQTYDSSTTAAFGGGTEVEIK
notes: Rabbit monoclonal IgG
B7: the binding entry in test [1] and in test [2] was “binds” throughout.

B8: LA-258-1 (antibody, V domains shown)
VH: QSVKESGGDLVKPEGSLTLTCKASGFSFSNSYYMCWVRQAPGKGLEWIACIYTGSTSGTYYASWVNGRFTISKTPSTTVTLQMTSLTVADTATYFCSRKLTNFNGAYLDLWGPGTLVTISS
VL: ELVLTQTPASVEAAVGGTVTINCQASQSISNLLAWYQQKPGQRPKLLIYRASTLASGVSSRFKGSGSGTEYTLTISGVQCDDAATYYCQQGYTSNNVDNAFGGGTEVEIK
notes: Rabbit monoclonal IgG
B8: the binding result in test [1] and in test [2] was “binds” in each case.

B9: LA-171 (antibody, V domains shown)
VH: EQSVEESGGRLVTPGGSLTLTCTVSGFSLSSYNMGWVRQAPGKGLEYIGWISLGGNTYYASWVNGRFTISKTSTTVELKISSPTTEDTATYFCARGAGSLYYGDYYFTLWGPGTLVTISS
VL: ELVLTQTPSSVSAAVGGTVTIKCQASQSIYSNLAWYQQKPGQPPKLLIYKASNLASGVPSRFKGSGSGTEYTLTISDLECADAATYYCQNYYGINDYGAAFGGGTEVVVK
notes: Rabbit monoclonal IgG
On to B9, for which the binding result in test [1] and in test [2] was “binds” each time.

B10: LA-56 (antibody, V domains shown)
VH: SSSVEESGGRLVTPGTPLTLTCTVSGFSLSAYWVGWVRQAPGKGLEYIGFVDVDIYYASWARGRFTISKTSSTTVDLILTSPTMEDTATYFCVRMSYNAMDLWGPGTLVTISS
VL: ELDLTQTASSVSAAVGDTVTINCQSSESVYKDNFLSWYQQKPGQPPKLLIYRASTLASGVPSRFKGSGSGSQFTLTISDVVCDDAATYYCSGYRNSHDGLPFGGGTEVEIK
notes: Rabbit monoclonal IgG; also called mAb LA-56
With B10, the binding result in test [1] and in test [2] was “binds” each time.

B11: LA-89 (antibody, V domains shown)
VH: QSVKESGGRLVTPGTPLTLTCTVSGFSLSSNAISWVRQAPGKGLEWIGYIYGDGRTFYASWAKGRFTISKTSTTVDLKMTSLTSEDTATYFCIKSLHLWGPGTLVTISS
VL: ELDMTQTASPVSAAVGGTVTINCQSSQSVYNKNQLFWYQQKPGQPPKLLIYDASTLASGVPSRYKGSGSGTQFTLTISGVQCDDAATYYCLGEYTGNIYTFGEGTEVVVK
notes: Rabbit monoclonal IgG; also called mAb LA-89
B11: the binding entry in test [1] and in test [2] was “binds” throughout.

B12: LA-35 (antibody, V domains shown)
VH: EQSVKESGGRLVTPGTPLTLTCTVSGIDLSYYSMGWFRQAPGKGLEWIGVISSSDSTYYANWAKGRFTISKTSTTVDLKIAGPTTEDTATYFCARVLANSYNAFNLWGPGSLVTISS
VL: ELDLTQTPASVSEPVGGTVTIKCQASQSVGSRLAWYQQKPGQPPKLLIYKASTLASGVPSRFKGSGSGTQFTLTMSDLECADAATYYCQCTNISSAYLGAFGGGTEVEIK
notes: Rabbit monoclonal IgG; also called mAb LA-35
B12: the binding result in test [1] and in test [2] was “binds” throughout.

B13: LA-94 (antibody, V domains shown)
VH: EQSLEESEGRLVTPGTPLTLTCTASGFSLSGYHMSWVRQAPGKGLEYIGYISERGTSYYANWAKGRFTVSKSSSSTVVLSIISPTAEDTATYFCARYGGGDSAFILWGPGTLVTISS
VL: ELVMTQTPASVSGPVGGTVTIKCQASHNIDNSLAWYQQKPGQPPKLLIYKASTLASGVSSRFKGSGSGTEYTLTISDLECADAATYFCQGTIGLNSGCAFGGGTEVEIK
notes: Rabbit monoclonal IgG; Called an agonist antibody; also called mAb LA-94; agonist Ab LA-94
Consider B13, for which the binding entry in test [1] and in test [2] was “binds” throughout.

B14: LA-259-1 (antibody, V domains shown)
VH: QSVKESGGRLVTPGTPLTLTCTASGFSLYKYNIQWVRQAPGKGLEYIGASTYAGYTYYASWAKGRVTISRTSTTVDLKMTSPTTEDTATYFCARHIDGDYSGYALWGPGTLVTISS
VL: ELVLTQTPASVSAAVGGTVTIKCQASQSIGTWFAWYQQKPGQSPKLLIYGPSKLASGVPPRFKGSGSGTEFTLTISDLECADAATYYCQSTYFGVDYLGGTFGGGTEVVVK
notes: Rabbit monoclonal IgG
Regarding B14, the binding entry in test [1] and in test [2] was “binds” each time.

B15: LA-142-2 (antibody, V domains shown)
VH: AAVKESGGRLVTPGTPLTLTCTASGFSLYKYNIQWVRQAPGKGLEYIGASTYAGYTYYASWAKGRVTISRTSTTVDLKMTSPTTEDTATYFCARHIDGDYSGYALWGPGTLVTVSS
VL: ELVLTQTPASVSAAVGGTVTIKCQASQSIGTWFAWYQQKPGQSPKLLIYGASNLASGVSSRFKGIRSGTEYTLTISDLECADAATYYCQCSDVGNTYGAAFGGGTEVEIN
notes: Rabbit monoclonal IgG
On to B15, for which the binding entry in test [1] and in test [2] was “binds” in each case.

B16: LA-142-1 (antibody, V domains shown)
VH: AAVKESGGRLVTPGTPLTLTCTASGFSLYKYNIQWVRQAPGKGLEYIGASTYAGYTYYASWAKGRVTISRTSTTVDLKMTSPTTEDTATYFCARHIDGDYSGYALWGPGTLVTVSS
VL: ELVLTQTPASVSAAVGGTVTIKCQASQSIGTWFAWYQQKPGQSPKLLIYGPSKLASGVPPRFKGSGSGTEFTLTISDLECADAATYYCQSTYFGVDYLGGTFGGGTEVEIK
notes: Rabbit monoclonal IgG
Consider B16, for which the binding result in test [1] and in test [2] was “binds” throughout.

B17: LA-245 (antibody, V domains shown)
VH: QSLQESRGRLVTPGTPLTLTCTASGFSLSSYHMGWVRQAPGKGLEWIGYIHTNRNTWYANWAKGRFTISKTSSTTVNLRMTSPTTEDTATYFCARGSYGDYNFLFDVWGPGTLVTVSS
VL: ELVMTQTPASVSEPVGGTVTINCQASEDISIYLAWYQQKPGQPPKLLIYDASTLESGVPSRFSGSGSRTQFTLTISDLECADAATYYCQQYSTTDTNNLFGGGTEVEIK
notes: Rabbit monoclonal IgG
As to B17, the binding entry in test [1] and in test [2] was “binds” throughout.

B18: LA-30 (antibody, V domains shown)
VH: EQSVESGGGLVQPEGSLTLTCKASGFDFSRNAICWVRQAPGKGPEWIACYSFSSSATYYASWAKSRFTISKTSSTTVTLQMTSLTAADTATYFCARVDIYGGSRYWGMWGPGTLVTISS
VL: ELVMTQTPASVEAAVGGTVTIKCQASQNIGGDLAWYQQKPGQPPKLLIYRASTLESGVPSRFSGSGSGTEFTLTISDLECADAATYYCQDTDIGSGAFGGGTELEIK
notes: Rabbit monoclonal IgG; also called mAb LA-30
Consider B18, for which the binding entry in test [1] and in test [2] was “binds” each time.

B19: LA-61 (antibody, V domains shown)
VH: EQLMEESGGRLVTPGTPLTLTCTASGFDVNAYHMGWVRQAPGKGLEWIGYIYSGGTIFYANWAKGRFTLSRTSTTVDLKITSPTTEDTATYFCARGGYDNYNILYDLWGPGTLVTISS
VL: ELDMTQTPASVSEPVGGTVTIKCQASQSISVYLAWYQQKPGQPPKLLIYDASTLTSGVPSRFKGSGSGTEFTLTISDLECADAAAYYCQSYDGTPTAAFGGGTEVVVK
notes: Rabbit monoclonal IgG; also called mAb LA-61
Turning to B19, the binding entry in test [1] and in test [2] was “binds” each time.
